Test results reported in patent US20070054353A1, “Nuclear receptor transcriptional corepressor and uses thereof” (priority 2002, published 2007).
These are yes or no findings as the source states them, for the method shown. For some assays here: Binding seen in cells or lysates may run through a third protein. Some results given as binding are weak or reduced against the parent protein; the word gives no strength. For some assays here: Sequences can lack the tags named with a protein.

Chains of the proteins cited; added tags and fusions are not shown. Lines headed by an entry give the natural chain unless they say otherwise; changes in a name come on top. Residues count along the entry.
UniProt P03372: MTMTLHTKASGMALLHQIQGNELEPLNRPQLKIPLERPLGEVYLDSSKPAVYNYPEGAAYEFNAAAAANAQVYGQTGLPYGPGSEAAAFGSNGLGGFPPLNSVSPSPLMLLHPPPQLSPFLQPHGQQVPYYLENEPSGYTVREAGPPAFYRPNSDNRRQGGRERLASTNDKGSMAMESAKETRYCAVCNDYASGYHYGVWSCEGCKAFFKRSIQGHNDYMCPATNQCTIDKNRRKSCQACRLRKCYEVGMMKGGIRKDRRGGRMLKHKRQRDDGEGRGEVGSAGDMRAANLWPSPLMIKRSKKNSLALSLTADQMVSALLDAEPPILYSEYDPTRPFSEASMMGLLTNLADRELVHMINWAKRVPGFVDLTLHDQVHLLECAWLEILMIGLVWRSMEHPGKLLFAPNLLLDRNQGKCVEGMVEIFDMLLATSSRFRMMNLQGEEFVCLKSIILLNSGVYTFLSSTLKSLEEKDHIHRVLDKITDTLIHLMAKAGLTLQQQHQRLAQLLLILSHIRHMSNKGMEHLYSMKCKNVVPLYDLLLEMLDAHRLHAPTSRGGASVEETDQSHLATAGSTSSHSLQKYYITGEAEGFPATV
ERα-LBD bait (yeast two-hybrid): residues 282-595 of P03372
UniProt Q9UBN7: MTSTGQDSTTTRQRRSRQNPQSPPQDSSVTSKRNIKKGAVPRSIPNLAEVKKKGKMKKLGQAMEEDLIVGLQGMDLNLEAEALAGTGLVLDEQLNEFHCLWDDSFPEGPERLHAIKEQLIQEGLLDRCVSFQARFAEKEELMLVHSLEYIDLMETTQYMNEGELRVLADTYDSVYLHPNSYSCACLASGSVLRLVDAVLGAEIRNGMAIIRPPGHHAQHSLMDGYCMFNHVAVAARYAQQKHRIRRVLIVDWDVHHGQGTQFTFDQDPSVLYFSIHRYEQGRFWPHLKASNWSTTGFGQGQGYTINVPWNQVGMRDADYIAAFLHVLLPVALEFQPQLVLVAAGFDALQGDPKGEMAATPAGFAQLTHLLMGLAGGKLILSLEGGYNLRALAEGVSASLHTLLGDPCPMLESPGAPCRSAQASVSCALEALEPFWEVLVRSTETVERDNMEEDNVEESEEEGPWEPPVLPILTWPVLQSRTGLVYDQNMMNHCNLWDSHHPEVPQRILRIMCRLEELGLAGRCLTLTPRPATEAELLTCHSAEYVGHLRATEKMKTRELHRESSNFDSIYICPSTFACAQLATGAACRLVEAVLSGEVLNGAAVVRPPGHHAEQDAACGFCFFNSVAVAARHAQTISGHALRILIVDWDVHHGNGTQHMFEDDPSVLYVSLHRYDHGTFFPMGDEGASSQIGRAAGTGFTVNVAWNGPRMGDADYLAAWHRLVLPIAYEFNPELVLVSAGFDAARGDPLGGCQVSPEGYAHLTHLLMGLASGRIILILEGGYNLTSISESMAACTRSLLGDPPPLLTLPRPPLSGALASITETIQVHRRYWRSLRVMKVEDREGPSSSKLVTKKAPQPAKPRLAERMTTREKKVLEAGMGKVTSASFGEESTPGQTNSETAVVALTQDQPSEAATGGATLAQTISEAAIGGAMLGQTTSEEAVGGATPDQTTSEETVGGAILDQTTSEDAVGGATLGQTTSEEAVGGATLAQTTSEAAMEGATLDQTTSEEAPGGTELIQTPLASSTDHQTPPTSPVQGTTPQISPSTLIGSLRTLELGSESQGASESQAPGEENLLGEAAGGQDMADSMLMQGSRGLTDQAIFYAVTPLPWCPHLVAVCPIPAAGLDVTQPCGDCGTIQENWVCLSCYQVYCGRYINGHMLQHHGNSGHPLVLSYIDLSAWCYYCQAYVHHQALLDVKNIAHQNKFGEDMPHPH
UniProt O15379: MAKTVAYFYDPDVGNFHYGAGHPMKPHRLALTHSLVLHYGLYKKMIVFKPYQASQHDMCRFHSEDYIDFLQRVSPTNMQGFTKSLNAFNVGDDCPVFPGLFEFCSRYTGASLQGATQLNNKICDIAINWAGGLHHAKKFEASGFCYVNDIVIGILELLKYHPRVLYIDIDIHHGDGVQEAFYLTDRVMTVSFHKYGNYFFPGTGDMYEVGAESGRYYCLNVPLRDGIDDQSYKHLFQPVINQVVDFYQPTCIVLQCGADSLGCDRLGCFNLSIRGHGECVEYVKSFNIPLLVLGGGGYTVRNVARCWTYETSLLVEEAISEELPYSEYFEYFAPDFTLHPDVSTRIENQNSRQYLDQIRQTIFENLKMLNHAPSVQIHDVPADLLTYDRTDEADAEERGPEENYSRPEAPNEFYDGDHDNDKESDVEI
UniProt Q92731, residues 248-530: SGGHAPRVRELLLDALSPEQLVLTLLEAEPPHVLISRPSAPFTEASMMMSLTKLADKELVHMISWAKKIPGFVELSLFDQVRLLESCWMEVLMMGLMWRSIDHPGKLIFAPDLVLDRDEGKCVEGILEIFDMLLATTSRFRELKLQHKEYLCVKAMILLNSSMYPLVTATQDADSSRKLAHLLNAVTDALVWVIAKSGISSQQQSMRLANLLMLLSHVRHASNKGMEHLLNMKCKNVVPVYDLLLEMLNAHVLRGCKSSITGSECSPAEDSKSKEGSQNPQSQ

Experiments:
[1] = target: CtBP2 (C-terminal binding protein 2) (human) (UniProt P56545); assay: coimmunoprecipitation with anti-CtBP antibody, transfected MCF-7 cells
GST-ERα-LBD = GST-ERα-LBD (UniProt P03372); assay: GST pull-down
[2] = target: ERα-LBD bait (yeast two-hybrid) (UniProt P03372); assay: yeast two-hybrid
[3] = target: ERα (estrogen receptor α) (human) (UniProt P03372); assay: coimmunoprecipitation
[4] = target: CtBP2 (C-terminal binding protein 2) (human) (UniProt P56545); assay: coimmunoprecipitation, MCF-7 extracts
HDAC6 (human) [5] = target: HDAC6 (human) (UniProt Q9UBN7); assay: coimmunoprecipitation, MCF-7 extracts
[6] = target: ERα-LBD bait (yeast two-hybrid) (UniProt P03372); assay: yeast two-hybrid screen with ERα-LBD bait, 10^-6 M estradiol
[7] = target: ERα (estrogen receptor α) (human) (UniProt P03372); assay: coimmunoprecipitation with anti-ERα antibody, MCF-7 extracts
HDAC3 (human) [8] = target: HDAC3 (human) (UniProt O15379); assay: coimmunoprecipitation with anti-HDAC3 antibody, MCF-7 extracts
HDAC6 (human) [9] = target: HDAC6 (human) (UniProt Q9UBN7); assay: coimmunoprecipitation with anti-HDAC6 antibody, MCF-7 extracts
HDAC3 (human) [10] = target: HDAC3 (human) (UniProt O15379); assay: coimmunoprecipitation, MCF-7 extracts (identical results in HEK293 extracts)
[11] = target: CtBP2 (C-terminal binding protein 2) (human) (UniProt P56545); assay: coimmunoprecipitation with anti-CtBP antibody (recognizes CtBP1 and CtBP2), MCF-7 extracts
[12] = target: CtBP2 (C-terminal binding protein 2) (human) (UniProt P56545); assay: coimmunoprecipitation with antibody recognizing CtBP1 and CtBP2, MCF-7 extracts (precipitates mostly CtBP1; similar in HEK293)
HA-HDAC3 [13] = target: HA-HDAC3 (UniProt O15379); assay: reciprocal coimmunoprecipitation, transfected COS-7 cells
HA-HDAC3 [14] = target: HA-HDAC3 (UniProt O15379); assay: coimmunoprecipitation with anti-Flag antibody, transfected COS-7 cells
HA-Flag-HDAC6 [15] = target: HA-Flag-HDAC6 (UniProt Q9UBN7); assay: coimmunoprecipitation, transfected COS-7 cells
HA-Flag-HDAC6 [16] = target: HA-Flag-HDAC6 (UniProt Q9UBN7); assay: coimmunoprecipitation with anti-Flag antibody, transfected COS-7 cells
HDAC3 (human) [17] = target: HDAC3 (human) (UniProt O15379); assay: GST pull-down, in vitro translated HDAC
HDAC6 (human) [18] = target: HDAC6 (human) (UniProt Q9UBN7); assay: GST pull-down, in vitro translated HDAC
ERβ = ERβ (UniProt Q92731); assay: GST pull-down (GST-LCoR by the legend of FIG. 4G)
VDR = target: T1, VDR (UniProt P11473); assay: GST pull-down (GST-LCoR by the legend of FIG. 4H)
T1 sequence (looked up): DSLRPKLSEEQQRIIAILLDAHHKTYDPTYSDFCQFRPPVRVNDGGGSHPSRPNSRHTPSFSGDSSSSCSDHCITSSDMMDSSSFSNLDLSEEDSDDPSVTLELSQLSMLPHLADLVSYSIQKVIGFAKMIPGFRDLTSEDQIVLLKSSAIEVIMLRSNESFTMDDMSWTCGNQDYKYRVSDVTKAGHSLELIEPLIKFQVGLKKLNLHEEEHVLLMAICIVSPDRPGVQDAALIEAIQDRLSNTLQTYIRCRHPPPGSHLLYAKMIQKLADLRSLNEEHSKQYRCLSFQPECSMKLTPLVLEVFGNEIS

Measured: binding

B1: Flag-m1 (Flag-tagged LCoR mutated in CtBP binding site 1) (protein, not shown: small tags and cut ends)
chain: MQRMIQQFAAEYTSKNSSTQDPSQPNSTKNQSLPKASPVTTSPTAATTQNPVLSKLLMADQDSKSQSEPSEQDGVLDLSTKKSPCAGSTSLSHSPGCSSTQGNGRPGRPSQYRPDGLRSGDGVPPRSLQDGTREGFGHSTSLKVPLARSLQISEELLSRNQLSTAASLGPSGLQNHGQHLILSREASWAKPHYEFNLSRMKFRGNGALSNISDLPFLAENSAFPKMALQAKQDGKKDVSHSSPVDLKIPQVRGMDLSWESRTGDQYSYSSLVMGSQTESALSKKLRAILPKQSRKSMLDAGPDSWGSDAEQSTPGQPYPTSDQEGDPGSKQPRKKRGRYRQYNSEILEEAISVVMSGKMSVSKAQSIYGIPHSTLEYKVKERLGTLKNPPKKKMKLMRSEGPDVSVKIELDPQGEAAQSANESKNE
binds: [1]

B2: Flag-m2 (Flag-tagged LCoR mutated in CtBP binding site 2) (protein, not shown: small tags and cut ends)
chain: MQRMIQQFAAEYTSKNSSTQDPSQPNSTKNQSLPKASPVTTSPTAATTQNPVLSKLLMADQDSPLDLTVRKSQSEPSEQDGKSPCAGSTSLSHSPGCSSTQGNGRPGRPSQYRPDGLRSGDGVPPRSLQDGTREGFGHSTSLKVPLARSLQISEELLSRNQLSTAASLGPSGLQNHGQHLILSREASWAKPHYEFNLSRMKFRGNGALSNISDLPFLAENSAFPKMALQAKQDGKKDVSHSSPVDLKIPQVRGMDLSWESRTGDQYSYSSLVMGSQTESALSKKLRAILPKQSRKSMLDAGPDSWGSDAEQSTPGQPYPTSDQEGDPGSKQPRKKRGRYRQYNSEILEEAISVVMSGKMSVSKAQSIYGIPHSTLEYKVKERLGTLKNPPKKKMKLMRSEGPDVSVKIELDPQGEAAQSANESKNE
binds: [1]

B3: LCoR (ligand-dependent corepressor) (protein)
chain: MQRMIQQFAAEYTSKNSSTQDPSQPNSTKNQSLPKASPVTTSPTAATTQNPVLSKLLMADQDSPLDLTVRKSQSEPSEQDGVLDLSTKKSPCAGSTSLSHSPGCSSTQGNGRPGRPSQYRPDGLRSGDGVPPRSLQDGTREGFGHSTSLKVPLARSLQISEELLSRNQLSTAASLGPSGLQNHGQHLILSREASWAKPHYEFNLSRMKFRGNGALSNISDLPFLAENSAFPKMALQAKQDGKKDVSHSSPVDLKIPQVRGMDLSWESRTGDQYSYSSLVMGSQTESALSKKLRAILPKQSRKSMLDAGPDSWGSDAEQSTPGQPYPTSDQEGDPGSKQPRKKRGRYRQYNSEILEEAISVVMSGKMSVSKAQSIYGIPHSTLEYKVKERLGTLKNPPKKKMKLMRSEGPDVSVKIELDPQGEAAQSANESKNE
not listed: [1] | HA-HDAC3 [13] | HA-HDAC3 [14] | HA-Flag-HDAC6 [15] | HA-Flag-HDAC6 [16] | HDAC3 (human) [17] | HDAC6 (human) [18] | ERβ | VDR
binds: all other assays above

B4: Flag-LSKAA (protein, not shown: small tags and cut ends)
chain: MQRMIQQFAAEYTSKNSSTQDPSQPNSTKNQSLPKASPVTTSPTAATTQNPVLSKAAMADQDSPLDLTVRKSQSEPSEQDGVLDLSTKKSPCAGSTSLSHSPGCSSTQGNGRPGRPSQYRPDGLRSGDGVPPRSLQDGTREGFGHSTSLKVPLARSLQISEELLSRNQLSTAASLGPSGLQNHGQHLILSREASWAKPHYEFNLSRMKFRGNGALSNISDLPFLAENSAFPKMALQAKQDGKKDVSHSSPVDLKIPQVRGMDLSWESRTGDQYSYSSLVMGSQTESALSKKLRAILPKQSRKSMLDAGPDSWGSDAEQSTPGQPYPTSDQEGDPGSKQPRKKRGRYRQYNSEILEEAISVVMSGKMSVSKAQSIYGIPHSTLEYKVKERLGTLKNPPKKKMKLMRSEGPDVSVKIELDPQGEAAQSANESKNE
binds: HA-HDAC3 [13] | HA-HDAC3 [14]

B5: HA-LCoR (protein, not shown: small tags and cut ends)
chain: MQRMIQQFAAEYTSKNSSTQDPSQPNSTKNQSLPKASPVTTSPTAATTQNPVLSKLLMADQDSPLDLTVRKSQSEPSEQDGVLDLSTKKSPCAGSTSLSHSPGCSSTQGNGRPGRPSQYRPDGLRSGDGVPPRSLQDGTREGFGHSTSLKVPLARSLQISEELLSRNQLSTAASLGPSGLQNHGQHLILSREASWAKPHYEFNLSRMKFRGNGALSNISDLPFLAENSAFPKMALQAKQDGKKDVSHSSPVDLKIPQVRGMDLSWESRTGDQYSYSSLVMGSQTESALSKKLRAILPKQSRKSMLDAGPDSWGSDAEQSTPGQPYPTSDQEGDPGSKQPRKKRGRYRQYNSEILEEAISVVMSGKMSVSKAQSIYGIPHSTLEYKVKERLGTLKNPPKKKMKLMRSEGPDVSVKIELDPQGEAAQSANESKNE
binds: HA-Flag-HDAC6 [15] | HA-Flag-HDAC6 [16]

B6: HA-LCoR-LSKAA (protein, not shown: small tags and cut ends)
chain: MQRMIQQFAAEYTSKNSSTQDPSQPNSTKNQSLPKASPVTTSPTAATTQNPVLSKAAMADQDSPLDLTVRKSQSEPSEQDGVLDLSTKKSPCAGSTSLSHSPGCSSTQGNGRPGRPSQYRPDGLRSGDGVPPRSLQDGTREGFGHSTSLKVPLARSLQISEELLSRNQLSTAASLGPSGLQNHGQHLILSREASWAKPHYEFNLSRMKFRGNGALSNISDLPFLAENSAFPKMALQAKQDGKKDVSHSSPVDLKIPQVRGMDLSWESRTGDQYSYSSLVMGSQTESALSKKLRAILPKQSRKSMLDAGPDSWGSDAEQSTPGQPYPTSDQEGDPGSKQPRKKRGRYRQYNSEILEEAISVVMSGKMSVSKAQSIYGIPHSTLEYKVKERLGTLKNPPKKKMKLMRSEGPDVSVKIELDPQGEAAQSANESKNE
binds: HA-Flag-HDAC6 [15] | HA-Flag-HDAC6 [16]

B7: GST-LSKAA (protein, not shown: a dimerising Fc or GST)
chain: MQRMIQQFAAEYTSKNSSTQDPSQPNSTKNQSLPKASPVTTSPTAATTQNPVLSKAAMADQDSPLDLTVRKSQSEPSEQDGVLDLSTKKSPCAGSTSLSHSPGCSSTQGNGRPGRPSQYRPDGLRSGDGVPPRSLQDGTREGFGHSTSLKVPLARSLQISEELLSRNQLSTAASLGPSGLQNHGQHLILSREASWAKPHYEFNLSRMKFRGNGALSNISDLPFLAENSAFPKMALQAKQDGKKDVSHSSPVDLKIPQVRGMDLSWESRTGDQYSYSSLVMGSQTESALSKKLRAILPKQSRKSMLDAGPDSWGSDAEQSTPGQPYPTSDQEGDPGSKQPRKKRGRYRQYNSEILEEAISVVMSGKMSVSKAQSIYGIPHSTLEYKVKERLGTLKNPPKKKMKLMRSEGPDVSVKIELDPQGEAAQSANESKNE
binds: HDAC3 (human) [17] | HDAC6 (human) [18]

B8: Flag-LCoR (protein, not shown: small tags and cut ends)
chain: MQRMIQQFAAEYTSKNSSTQDPSQPNSTKNQSLPKASPVTTSPTAATTQNPVLSKLLMADQDSPLDLTVRKSQSEPSEQDGVLDLSTKKSPCAGSTSLSHSPGCSSTQGNGRPGRPSQYRPDGLRSGDGVPPRSLQDGTREGFGHSTSLKVPLARSLQISEELLSRNQLSTAASLGPSGLQNHGQHLILSREASWAKPHYEFNLSRMKFRGNGALSNISDLPFLAENSAFPKMALQAKQDGKKDVSHSSPVDLKIPQVRGMDLSWESRTGDQYSYSSLVMGSQTESALSKKLRAILPKQSRKSMLDAGPDSWGSDAEQSTPGQPYPTSDQEGDPGSKQPRKKRGRYRQYNSEILEEAISVVMSGKMSVSKAQSIYGIPHSTLEYKVKERLGTLKNPPKKKMKLMRSEGPDVSVKIELDPQGEAAQSANESKNE
binds: HA-HDAC3 [13] | HA-HDAC3 [14] | [1]

B9: GST-LCoR (protein, not shown: a dimerising Fc or GST)
chain: MQRMIQQFAAEYTSKNSSTQDPSQPNSTKNQSLPKASPVTTSPTAATTQNPVLSKLLMADQDSPLDLTVRKSQSEPSEQDGVLDLSTKKSPCAGSTSLSHSPGCSSTQGNGRPGRPSQYRPDGLRSGDGVPPRSLQDGTREGFGHSTSLKVPLARSLQISEELLSRNQLSTAASLGPSGLQNHGQHLILSREASWAKPHYEFNLSRMKFRGNGALSNISDLPFLAENSAFPKMALQAKQDGKKDVSHSSPVDLKIPQVRGMDLSWESRTGDQYSYSSLVMGSQTESALSKKLRAILPKQSRKSMLDAGPDSWGSDAEQSTPGQPYPTSDQEGDPGSKQPRKKRGRYRQYNSEILEEAISVVMSGKMSVSKAQSIYGIPHSTLEYKVKERLGTLKNPPKKKMKLMRSEGPDVSVKIELDPQGEAAQSANESKNE
binds: HDAC3 (human) [17] | HDAC6 (human) [18] | ERβ | VDR
